In all, about 31,000 sequences went through this assay and about 1,400 (4.5%) were called active.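 How the source made its calls: active means median seed-adjusted z-score above 1 or below -1; inactive means the rest.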 Some of the results follow.
Test: Novel Modifiers of Survival Motor Neuron (SMN) Protein: Gene Identification via Genome-wide siRNA Screen;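 further: luminescence tracks full-length SMN protein made from the SMN2 reporter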
Conditions: HEK293T SMN2-luciferase reporter, siRNA knockdown, 72 h; actives lie on both sides
Outline: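 Steps: spot 1 pmol siRNA, add Lipofectamine RNAiMax in serum-free DMEM, seed HEK293T SMN2–luciferase reporter cells; incubate 72 h at 37 °C; add ONE-Glo; normalize luminescence to control siRNA, log10, MAD. Candidates: |MAD| > 1.0.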

Sequence	median seed-adjusted z-score
GCAGGGACCAAGAACUAUATT against TARS	inactive: 0.146
GAGAGACUCUGCAAGCUAUTT against DDX17	inactive: 0.231
CAAUGACCAUUGACGGAAUTT against ELAVL2	inactive: -0.077
GGAGCUCACUGACGAGAAUTT against POLR2C	active: -2.95
AACCUAUGCGUAUCCAGUATT against SNRPA	active: -2.09
AGACCUAGCAUGGACCAGATT against GUCY2E	inactive: 0.61
GGUUUUCGAAACUUACAUATT against PGR	inactive: -0.0249
GGUUCUAUGAGGAUGAUGATT against NFKB2	inactive: -0.132
UGUGAUACCUCAAAGCACATT against NARF	inactive: -0.346
CAACAUUCCAUCACUAAUATT against NXN	inactive: 0.175
GGUACGUUUUUAUAUGGAATT against PTPLA	inactive: 0.291
GGAUCCAUUUUGAGGAUUATT against VIPR1	inactive: 0.168
CUCGCUACAUGAUCUAUGATT against NECAB1	inactive: 0.0268
CAAACUGCAAUGUACUUGATT against PDK1	inactive: -0.00904
GGAUGAUUGUGAUUCAUUUTT against SLC16A4	inactive: 0.341
CGUUCCUAAGCUACAAGAATT against TMPRSS9	inactive: 0.106
GGACGGUAAUAACGGAAGATT against FUBP3	inactive: 0.108
GCUCUUCUCCACACCGUCATT against CRCP	inactive: 0
GACUUUCUGCUGACUCAUATT against DGAT2L4	inactive: 0.145
CCAUCCGUCUUAGCAAGGATT against MYH14	inactive: -0.307
GAGCAUGAAUUGGUUUUAATT against GALNT11	inactive: -0.259
CACUUGAGGUUGAUCAAGATT against SNX16	inactive: -0.111
GCAUUAUGGUGUCCGCACATT against NR4A1	inactive: -0.207

Sequence	median seed-adjusted z-score
GAUUCGAAAUAGUAUUGUATT against ZNF44	inactive: 0.349
GGUGGAAAGCGUAAAGAUATT against PDCD4	inactive: -0.0842
GGAGAAUUAUAGUCUCGCUTT against MTNR1A	inactive: 0
CCUCGAGCAUAUAAUCUAATT against SETDB2	inactive: 0.417
GAUAAUGAGUGGAGAAAGATT against VEGFC	inactive: -0.41
CCACCUUAACAGACCUCUATT against PPIA	inactive: 0.0169
GAGAGAUUCCUUUUUCUUUTT against SLC25A26	inactive: 0.0213
GGGUGGGUUACAUAGCACATT against CLDN19	inactive: 0
GCGAUGAAAUUGUCGUGUATT against MAP3K9	inactive: -0.498
CGAGUACCUCCAUUCACUATT against PRKACB	inactive: -0.258
CAAUGUCAGUAAUCAGCAATT against ICK	inactive: 0.638
AGGUAGAUGUGACAGGAAATT against TRIM21	inactive: 0.524
GCAACUAAGACCUUCGUUATT against GRIA4	inactive: 0
CACUAUUCGGAAUCCACUATT against ADCYAP1R1	inactive: 0.404
CAACCUUCCUCGGACUAAUTT against SLC26A2	active: -1.25
GACCAAGCGCAAAACCAAATT against HOMEZ	inactive: -0.0614
GCUAUCAGGUCAUAACCAATT against MYBPC2	inactive: 0.18
GAAUAUAUCUGUAUGAUCATT against DNAJC5G	inactive: 0.0656
AAGCUGAAGUGACGAUGAATT against CBR1	inactive: -0.6
CCAAGUUUUCCGUCAAAGATT against GNAT2	inactive: 0
GAACUUCAUAGUACAGCGATT against CTNNAL1	inactive: 0.229
GCCGAAUUCUUCACCUCUATT against P4HA2	inactive: 0
GGAGAGACUUUUUACAACUTT against CACNG6	inactive: -0.0499

Sequence	median seed-adjusted z-score
CAAACAACCCAUGACGAAATT against IL10RB	inactive: 0.167
CCAUGGACCGGGAUUAUCATT against JUB	inactive: -0.0898
GGAGUGAUUAUGUAUGAAATT against STK38L	inactive: 0.079
CAAUCCUCAGUUCCGUUUATT against CAPN12	inactive: 0.155
ACAGAUUGGUGAACCUAAUTT against CA13	inactive: -0.212
AAGUCUCUGUGAGACAGUATT against ARRB2	inactive: -0.153
AACGGAGUCUUUGCACUUATT against POLE4	inactive: -0.0404
CCAUGCACCUCAUCGCUAUTT against MCF2L	inactive: -0.624
GAAUUGAGGAAUCAAUUGATT against MCM6	inactive: 0.266
GAAUUACUCGGUCAAUAUATT against PDGFD	inactive: 0.366
GGAGAGGUCCCAUCCUAUATT against DNAJC9	inactive: 0.0545
AGGUAAUAAUAGACGUGGATT against NUPL2	inactive: 0.134
CGUGGGAACUUUUACCCGATT against ATP9A	inactive: 0.499
CCGUCUAGAUGAACAACUATT against ZNF451	inactive: 0
GGACAAUAGACUUUAGAGATT against NCALD	inactive: 0
GACCUGAAAUCAGAACUAATT against ANXA5	inactive: 0.268
GGGUUACCAGGUUCAUACATT against MDFI	inactive: 0.279
CCGAUACAAUCGCAUGUAATT against ATF7	inactive: 0.903
CGGAGGUUUCUCAACCAUUTT against HNMT	inactive: 0.336
CCCUAAAGAGUGUCGAGUUTT against ACAD11	inactive: -0.679
GAGCUACUGGGAGGGUAAATT against GNG3	inactive: -0.186
CUACUCUUCUGACACGGAATT against LDLRAD3	inactive: -0.133
GGGAGAACGUGAACAGGAATT against TRIM11	inactive: -0.251

Rewritten with each value named: part of the list above
CAAACAACCCAUGACGAAATT against IL10RB
  median seed-adjusted z-score: inactive: 0.167
ACAGAUUGGUGAACCUAAUTT against CA13
  median seed-adjusted z-score: inactive: -0.212
AAGUCUCUGUGAGACAGUATT against ARRB2
  median seed-adjusted z-score: inactive: -0.153
AACGGAGUCUUUGCACUUATT against POLE4
  median seed-adjusted z-score: inactive: -0.0404
